Consider two molecules from paper doi:10.1101/2023.07.10.548302.

The chains behind the UniProt entries cited, without tags or fusion partners.
UniProt Q27331: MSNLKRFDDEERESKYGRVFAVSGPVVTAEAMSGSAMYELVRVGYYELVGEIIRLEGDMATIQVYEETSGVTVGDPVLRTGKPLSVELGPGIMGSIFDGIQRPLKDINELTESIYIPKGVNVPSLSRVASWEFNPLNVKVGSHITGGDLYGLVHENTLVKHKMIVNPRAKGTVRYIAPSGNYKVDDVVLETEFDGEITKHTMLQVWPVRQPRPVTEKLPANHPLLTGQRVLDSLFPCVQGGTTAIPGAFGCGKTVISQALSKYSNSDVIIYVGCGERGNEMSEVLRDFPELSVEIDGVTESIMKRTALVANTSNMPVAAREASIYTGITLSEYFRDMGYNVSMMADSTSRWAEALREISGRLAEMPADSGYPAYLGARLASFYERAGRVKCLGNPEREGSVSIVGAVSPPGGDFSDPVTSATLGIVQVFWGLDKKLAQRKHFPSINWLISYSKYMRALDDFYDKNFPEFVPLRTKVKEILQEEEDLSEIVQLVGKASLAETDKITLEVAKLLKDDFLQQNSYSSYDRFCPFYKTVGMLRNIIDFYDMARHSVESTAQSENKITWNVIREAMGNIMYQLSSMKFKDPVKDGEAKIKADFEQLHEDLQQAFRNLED

No constants are given. Whether binding was seen depends on the method and setting. Binding seen in cells or lysates may run through a third protein. These calls come from enrichment with a bait or labelling near it, and not all partners need be listed. Where a sequence is shown, tags or fusion partners need not be part of it.

For the test, the target named is T1, Vap33-YFP (endogenously YFP-tagged Vap33) (Drosophila (endogenous in embryos)) (UniProt Q9W4N8).
T1 sequence: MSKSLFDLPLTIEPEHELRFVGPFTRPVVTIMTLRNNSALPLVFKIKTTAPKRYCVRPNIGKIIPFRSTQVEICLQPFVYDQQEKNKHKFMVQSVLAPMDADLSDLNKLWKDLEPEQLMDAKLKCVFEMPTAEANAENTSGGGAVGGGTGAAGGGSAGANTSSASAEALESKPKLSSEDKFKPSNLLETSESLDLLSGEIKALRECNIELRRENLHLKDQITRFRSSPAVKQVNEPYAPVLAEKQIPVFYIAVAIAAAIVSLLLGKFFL
The test can be described thus: affinity purification with mass spectrometry.

On to “Vha68-2 (V-ATPase component) (from UniProt Q27331 1-614)”, for which the binding result is given as “binds”.

B1: Git (G protein-coupled receptor kinase interacting ArfGAP), endogenous in embryos (protein, UniProt Q95RG8 1-731)
chain: MCFASSIIEAHRKLFIAPPDLDHSDPATPTISTRSKMPRGKSRLQTEVCGDCGAGDPSWASINRGILLCADCCSVHRSLGRHISIVKSLRQGNWEPSVLNFVNSLNAHGANSVWEHHLLDGSTNSTGGKHVPRWRKPTPKDALHPTKSDFIKAKHVNLTFVLKPSLQDDDDGNGSAGCLEQELSRQLHASVRTSNLETSLRFLVQGADPNYYHEDKLSTPLHMAAKFGQASQIEMLLIYGADVNALDGNGMTPLELARANNHNTIAERLLDAMYDVTDRIITFLGGKKPDHASGRHMIIPDANGADISEQLKIARGKLQLVPNKMFEELVMDLYDEVDRRECEAIWSTSTLNADHATVPFLPANPFLSATRNQGRQKLARFNRAEFTGLLTDVLVDAMRRQNMANLRPMDAPVAGHQSLQSLPYANNSMLLGSFEQGGHDPNLSDDEPIYDPVASDDDYAPVPPMAQQAIVHTPPRSANSHNEMETLRKQLNDYKSEINQLKNVVQMLSSENTQLKSKFSSASNNSVYDEPLRIDLSLSSPDTEHEPLSLPEGGTANGESGSSNDSSNQSTIKRPASMYERRLVPNVAKGNTDIRNTTSMYQMAGDGKPFGEEVKVRSDLVTRRLKELIRAMQPVPEDQKQSIAPHGELIRSAVTDLIALYANLPPNASDPSRETLKLLTRQNILIQHECENLQKAIEADDKQAIQKNTLEVRDCAFHIASAIKTLVLQFY
Take B1: the binding entry is on record as “binds”.
